# Measured values: patent publication US10705101B2, “Determination of the unbound free fatty acid profiles in biological and industrial specimens” (priority 2013, dated 2020)
# The chains behind the UniProt entries cited, without tags or fusion partners. Residues count along the entry.
# UniProt P02768, 25-609: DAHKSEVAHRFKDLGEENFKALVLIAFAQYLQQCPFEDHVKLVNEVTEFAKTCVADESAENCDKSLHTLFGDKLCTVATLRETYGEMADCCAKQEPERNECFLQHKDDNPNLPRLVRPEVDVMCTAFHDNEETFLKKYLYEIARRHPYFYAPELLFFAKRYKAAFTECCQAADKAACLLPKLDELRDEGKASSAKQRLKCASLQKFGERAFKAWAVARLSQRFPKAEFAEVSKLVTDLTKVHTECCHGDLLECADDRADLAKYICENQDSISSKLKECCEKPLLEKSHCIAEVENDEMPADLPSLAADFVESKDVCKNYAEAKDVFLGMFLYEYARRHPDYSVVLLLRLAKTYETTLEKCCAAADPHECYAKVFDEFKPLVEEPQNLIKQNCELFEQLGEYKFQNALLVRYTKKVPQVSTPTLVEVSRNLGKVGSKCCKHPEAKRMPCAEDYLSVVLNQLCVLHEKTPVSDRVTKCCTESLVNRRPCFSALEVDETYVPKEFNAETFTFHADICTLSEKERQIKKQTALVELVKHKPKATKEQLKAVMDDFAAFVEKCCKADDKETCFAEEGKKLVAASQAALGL
# At least one compound was matched to its structure with a doubt left.
# Molecular target: human serum albumin (Homo sapiens, UniProt P02768)
# Test: FFAu profile in artificial plasma (FFA mixed with fatty acid free human serum albumin)
# Type: binding
# Details: artificial plasma: defined FFA mix with fatty acid free HSA in Measuring buffer
row,Structure (SMILES),% FFAu [%]
1,"CCCCC/C=C\C/C=C\C/C=C\C/C=C\CCCC(=O)O [AA, arachidonate]",5.8
2,"CCCCC/C=C\C/C=C\CCCCCCCC(=O)O [LA, linoleate]",21.1
3,"CCCCCCCCCCCCCC(=O)O [MA, myristate]",33
